For part of these data: At least one structure is not confirmed: it was looked up by name or label, or the drawing left a doubt. Some entries share one result that the patent states for a list of compounds.
Tests used:
[1] = target: T1, WT tau FRET biosensor (tau-GFP/RFP) (Homo sapiens, UniProt P10636); test: Pilot HTS of NCC library with tau FRET biosensor (fluorescence lifetime); conditions: 10 μM, 2 hours
[2] = target: T1, WT tau FRET biosensor (tau-GFP/RFP); test: WT tau inter-molecular FRET biosensor in HEK293 cells (dose-response, functionality); type: cell-based; design: cDNA encoding full-length 2N4R tau (441 amino acids); […]; expressed in transfected cells; host or cells: HEK293, transient, tau-GFP:tau-RFP plasmids 1:20; conditions: functionality test
Experimental: HEK293 and SH-SY5Y cells (ATCC) were cultured in phenol red-free Dulbecco's Modified Eagle Medium (DMEM, Gibco) supplemented with 2 mM L-Glutamine (Invitrogen), heat-inactivated 10% fetal bovine serum (FBS HI, Gibco), 100 U/ml penicillin and 100 μg/ml streptomycin (Gibco). Cell cultures were maintained in an incubator with 5% CO2 (Forma Series II Water Jacket CO2 Incubator, Thermo Scientific) at 37° C. […] To generate stable cell lines expressing GFP-tau-RFP or tau-GFP only, HEK293 cells were transiently transfected using Lipofectamine 3000 with GFP-tau-RFP or tau-GFP DNA plasmids. Transiently transfected cells were treated with G418 (Enzo Life Sciences, Farmingdale, N.Y.) to eliminate non-expressing cells. Stable cell lines expressing GFP-tau-RFP or tau-GFP with the largest population of expressing cells were selected by fluorescence microscopy. The GFP-linker-RFP (linker contains 32 amino acids, GFP-32AA-RFP) control stable cell line was generated as described previously. The control cells expressing only free soluble fluorophores (GFP or RFP only) were generated by transiently transfecting HEK293 cells using Lipofectamine 3000 with plasmids containing GFP or RFP DNAs at the same plasmid concentration as the inter-molecular tau FRET biosensor.
The compound was dissolved in DMSO to make a 10 mM stock solution, which was serially diluted in 96-well mother plates. […]

Structure (SMILES)	decrease in FRET efficiency below the mean of all wells [1] [SD]	sensitivity of the FRET biosensor to the compound [2]
CCCCNc1cc(C(=O)O)cc(S(N)(=O)=O)c1Oc1ccccc1 [Bumetanide]	> 5	–
CCc1oc2ccccc2c1C(=O)c1cc(Br)c(O)c(Br)c1 [Benzbromarone]	> 5	–
C=C[C@@]1(C)CC(=O)[C@]2(O)[C@@]3(C)[C@@H](O)CCC(C)(C)[C@@H]3[C@H](O)[C@H](OC(C)=O)[C@@]2(C)O1 [forskolin]	–	sensitive
